What all share (experiment): proximity labelling; TurboID-fused bait expressed from a centromeric CUP1-promoter plasmid in S. cerevisiae YDK11-5A; 500 μM copper sulphate and 500 μM biotin for 1 h at 30°C; biotinylated proteins purified on streptavidin agarose and identified by LC-MS/MS; enrichment against the GFP-TurboID and NLS-GFP-TurboID type controls
Test [1] addresses T1, TurboID-tagged Bcp1 (both baits) (S. cerevisiae) (UniProt Q06338).
T1 sequence: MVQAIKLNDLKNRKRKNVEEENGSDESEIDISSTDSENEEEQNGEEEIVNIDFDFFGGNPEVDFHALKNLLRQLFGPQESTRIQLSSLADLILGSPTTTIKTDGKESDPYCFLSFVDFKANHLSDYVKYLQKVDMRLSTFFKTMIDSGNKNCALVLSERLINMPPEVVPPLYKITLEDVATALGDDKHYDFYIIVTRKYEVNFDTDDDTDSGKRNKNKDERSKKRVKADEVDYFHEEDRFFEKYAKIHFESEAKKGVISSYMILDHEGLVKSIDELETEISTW

Amino acid sequences for entries named in this document (tags omitted). A change or cut given only in a name is not applied to a line headed by its entry.
UniProt P17076: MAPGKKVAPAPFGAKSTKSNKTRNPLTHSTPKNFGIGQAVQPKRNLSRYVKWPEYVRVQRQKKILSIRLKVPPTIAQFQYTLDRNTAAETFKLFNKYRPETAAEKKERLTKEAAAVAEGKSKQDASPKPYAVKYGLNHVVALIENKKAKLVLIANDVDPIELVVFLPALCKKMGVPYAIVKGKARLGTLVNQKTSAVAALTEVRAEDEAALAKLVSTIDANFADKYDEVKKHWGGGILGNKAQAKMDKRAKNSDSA
UniProt P04449: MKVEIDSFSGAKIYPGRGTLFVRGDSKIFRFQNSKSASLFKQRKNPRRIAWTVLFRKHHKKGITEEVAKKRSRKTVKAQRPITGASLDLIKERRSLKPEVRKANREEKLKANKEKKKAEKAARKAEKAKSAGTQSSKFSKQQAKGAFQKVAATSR
UniProt P04650: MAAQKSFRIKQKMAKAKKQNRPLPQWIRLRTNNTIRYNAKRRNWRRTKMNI
UniProt P05748: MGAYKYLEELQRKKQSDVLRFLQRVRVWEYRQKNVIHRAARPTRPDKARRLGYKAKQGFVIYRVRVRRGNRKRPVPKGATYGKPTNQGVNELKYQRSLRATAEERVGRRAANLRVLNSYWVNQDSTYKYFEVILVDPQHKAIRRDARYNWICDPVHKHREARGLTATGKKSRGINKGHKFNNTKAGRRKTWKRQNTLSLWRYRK
UniProt P0CX27: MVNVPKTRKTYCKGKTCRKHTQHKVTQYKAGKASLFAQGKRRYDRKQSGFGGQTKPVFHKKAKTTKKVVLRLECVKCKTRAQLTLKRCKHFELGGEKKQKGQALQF
UniProt P14126: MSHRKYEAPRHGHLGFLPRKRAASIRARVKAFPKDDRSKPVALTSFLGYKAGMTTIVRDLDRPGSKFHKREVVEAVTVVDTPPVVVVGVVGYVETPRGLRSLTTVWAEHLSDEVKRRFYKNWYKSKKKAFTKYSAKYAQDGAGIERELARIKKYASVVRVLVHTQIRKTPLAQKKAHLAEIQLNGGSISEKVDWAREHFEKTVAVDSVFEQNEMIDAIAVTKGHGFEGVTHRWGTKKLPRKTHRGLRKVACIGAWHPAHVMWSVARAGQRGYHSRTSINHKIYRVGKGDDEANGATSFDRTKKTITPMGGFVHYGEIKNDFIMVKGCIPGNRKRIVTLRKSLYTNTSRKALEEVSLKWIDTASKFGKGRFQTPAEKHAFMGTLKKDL
UniProt P0CX44: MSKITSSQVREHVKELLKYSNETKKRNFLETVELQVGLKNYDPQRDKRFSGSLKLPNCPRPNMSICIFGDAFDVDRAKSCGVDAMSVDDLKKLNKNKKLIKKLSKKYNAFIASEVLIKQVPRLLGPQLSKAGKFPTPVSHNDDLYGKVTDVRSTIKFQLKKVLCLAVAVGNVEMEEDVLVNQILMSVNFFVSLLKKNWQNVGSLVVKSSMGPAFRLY
UniProt Q02821: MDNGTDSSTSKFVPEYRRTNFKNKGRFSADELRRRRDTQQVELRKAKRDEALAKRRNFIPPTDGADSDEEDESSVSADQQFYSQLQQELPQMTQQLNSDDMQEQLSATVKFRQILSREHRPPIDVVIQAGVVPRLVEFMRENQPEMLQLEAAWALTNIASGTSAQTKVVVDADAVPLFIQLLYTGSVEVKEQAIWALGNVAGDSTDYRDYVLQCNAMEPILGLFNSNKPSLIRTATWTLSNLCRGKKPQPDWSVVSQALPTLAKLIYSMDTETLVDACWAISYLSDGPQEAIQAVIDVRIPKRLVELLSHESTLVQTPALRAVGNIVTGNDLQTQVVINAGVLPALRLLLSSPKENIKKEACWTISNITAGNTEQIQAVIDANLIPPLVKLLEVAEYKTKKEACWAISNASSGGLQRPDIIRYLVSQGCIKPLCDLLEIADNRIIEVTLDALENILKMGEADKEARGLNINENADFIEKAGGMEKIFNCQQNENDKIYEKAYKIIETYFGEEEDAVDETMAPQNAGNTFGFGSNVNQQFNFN
UniProt P53067: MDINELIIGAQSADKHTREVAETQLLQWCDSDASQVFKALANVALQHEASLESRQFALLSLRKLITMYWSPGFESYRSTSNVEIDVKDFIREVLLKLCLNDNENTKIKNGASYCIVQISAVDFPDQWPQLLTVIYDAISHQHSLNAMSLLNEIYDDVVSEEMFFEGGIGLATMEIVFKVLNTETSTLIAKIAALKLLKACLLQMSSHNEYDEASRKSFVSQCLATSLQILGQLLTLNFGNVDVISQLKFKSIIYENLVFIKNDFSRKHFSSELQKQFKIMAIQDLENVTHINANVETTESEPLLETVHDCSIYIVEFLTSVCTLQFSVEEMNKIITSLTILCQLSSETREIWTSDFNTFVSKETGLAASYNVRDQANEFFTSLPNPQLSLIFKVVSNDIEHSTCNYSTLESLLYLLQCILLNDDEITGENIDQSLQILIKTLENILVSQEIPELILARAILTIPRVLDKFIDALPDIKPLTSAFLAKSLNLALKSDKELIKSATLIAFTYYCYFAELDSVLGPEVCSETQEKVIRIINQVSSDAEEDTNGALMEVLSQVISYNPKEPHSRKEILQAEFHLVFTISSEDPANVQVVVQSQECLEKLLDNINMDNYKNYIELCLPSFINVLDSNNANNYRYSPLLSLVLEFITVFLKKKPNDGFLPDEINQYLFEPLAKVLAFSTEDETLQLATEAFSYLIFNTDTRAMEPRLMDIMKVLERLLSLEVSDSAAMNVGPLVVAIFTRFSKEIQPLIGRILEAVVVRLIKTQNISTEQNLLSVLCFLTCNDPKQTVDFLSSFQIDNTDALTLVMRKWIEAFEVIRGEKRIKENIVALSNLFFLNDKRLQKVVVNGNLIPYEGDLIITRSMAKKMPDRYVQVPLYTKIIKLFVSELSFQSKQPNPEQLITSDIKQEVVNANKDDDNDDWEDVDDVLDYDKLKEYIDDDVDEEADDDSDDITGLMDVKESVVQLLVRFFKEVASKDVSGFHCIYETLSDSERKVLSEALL
UniProt P25293: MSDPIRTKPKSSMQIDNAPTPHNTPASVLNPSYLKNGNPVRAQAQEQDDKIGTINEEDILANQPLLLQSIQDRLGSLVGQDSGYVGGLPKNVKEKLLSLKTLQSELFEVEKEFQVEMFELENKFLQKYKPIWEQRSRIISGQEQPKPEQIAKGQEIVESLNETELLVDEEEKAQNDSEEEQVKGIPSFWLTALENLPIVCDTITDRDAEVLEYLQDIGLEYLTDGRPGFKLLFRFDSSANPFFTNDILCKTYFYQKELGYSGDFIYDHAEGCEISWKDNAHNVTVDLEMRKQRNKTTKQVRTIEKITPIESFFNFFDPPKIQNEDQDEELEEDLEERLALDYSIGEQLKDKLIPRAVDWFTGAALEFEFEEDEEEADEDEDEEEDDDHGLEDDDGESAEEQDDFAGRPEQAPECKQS
UniProt Q07915: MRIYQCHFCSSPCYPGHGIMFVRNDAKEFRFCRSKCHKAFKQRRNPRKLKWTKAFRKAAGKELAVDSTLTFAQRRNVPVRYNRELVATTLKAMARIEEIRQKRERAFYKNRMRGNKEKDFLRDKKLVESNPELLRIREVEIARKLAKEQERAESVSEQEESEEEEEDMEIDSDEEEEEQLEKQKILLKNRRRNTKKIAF
UniProt Q12690: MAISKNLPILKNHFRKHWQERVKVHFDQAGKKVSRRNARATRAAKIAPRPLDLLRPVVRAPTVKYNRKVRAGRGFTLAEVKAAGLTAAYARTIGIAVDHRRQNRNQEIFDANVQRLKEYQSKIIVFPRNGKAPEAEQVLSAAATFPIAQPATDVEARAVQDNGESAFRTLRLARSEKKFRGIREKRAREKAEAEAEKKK
UniProt P0CX42: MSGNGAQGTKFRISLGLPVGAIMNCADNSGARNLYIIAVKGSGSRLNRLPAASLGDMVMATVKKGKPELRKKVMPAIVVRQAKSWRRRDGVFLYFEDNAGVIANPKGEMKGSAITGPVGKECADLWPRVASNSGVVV

Test [2] concerns the target T2, TurboID-Rpl6a (S. cerevisiae) (UniProt Q02326).
T2 sequence: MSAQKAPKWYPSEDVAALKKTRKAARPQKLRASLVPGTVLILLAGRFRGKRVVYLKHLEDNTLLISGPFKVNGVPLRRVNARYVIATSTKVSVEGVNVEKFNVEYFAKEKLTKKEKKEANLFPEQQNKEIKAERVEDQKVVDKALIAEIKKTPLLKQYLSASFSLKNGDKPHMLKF

Test [3] concerns the target TurboID-tagged Rpl8 (both baits) (S. cerevisiae) (UniProt P17076).
In test [4] the target is TurboID-tagged Rpl24 (S. cerevisiae) (UniProt P04449).
Test [5] has as its target TurboID-tagged Rpl39 (S. cerevisiae) (UniProt P04650).
In test [6] the target is TurboID-tagged Rpl15 (S. cerevisiae) (UniProt P05748).
For test [7], the target named is TurboID-tagged Rpl42 (S. cerevisiae) (UniProt P0CX27).
Test [8] deals with Rpl3-TurboID (S. cerevisiae) (UniProt P14126).
In test [9] the target is T3, TurboID-tagged Acl4 (both baits) (S. cerevisiae) (UniProt Q03771).
T3 sequence: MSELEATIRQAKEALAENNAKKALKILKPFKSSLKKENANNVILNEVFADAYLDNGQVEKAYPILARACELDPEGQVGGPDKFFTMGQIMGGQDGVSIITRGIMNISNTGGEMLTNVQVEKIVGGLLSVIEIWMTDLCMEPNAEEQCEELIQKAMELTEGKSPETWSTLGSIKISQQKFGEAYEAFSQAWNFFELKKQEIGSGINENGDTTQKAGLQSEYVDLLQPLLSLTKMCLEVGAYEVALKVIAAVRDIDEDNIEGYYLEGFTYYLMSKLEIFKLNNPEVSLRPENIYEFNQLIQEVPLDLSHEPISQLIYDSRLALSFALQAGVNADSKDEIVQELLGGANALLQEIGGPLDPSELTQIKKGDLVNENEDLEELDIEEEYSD

The target of test [10] is Rpl1b-TurboID (S. cerevisiae) (UniProt P0CX44).
The target in test [11] is TurboID-Rpl1b (S. cerevisiae) (UniProt P0CX44).

No constants are given. Whether binding was seen depends on the method and setting. In cells and extracts the contact can be indirect. These calls come from enrichment with a bait or labelling near it, and not all partners need be listed. For some of these results: Where a sequence is shown, tags or fusion partners need not be part of it.

As to “Kap60 (endogenous) (from UniProt Q02821 1-542)”, in test [1], the binding result is “binds”. With “Kap114 (endogenous) (from UniProt P53067 1-1004)”, the binding entry in test [2] is recorded as “binds”. In the case of “Nap1 (endogenous) (from UniProt P25293 1-417)”, the binding result in test [3], in [4], in test [5], in test [6] and in [7] was “binds” each time. In the case of “Rlp24 (endogenous) (from UniProt Q07915 1-199)”, the binding entry in [1] and in test [8] was “binds” each time.

On to “Rpl4 (endogenous) (S. cerevisiae (endogenous in YDK11-5A))”, for which, in test [9], the binding entry is on record as “binds”. For “Rpl13 (endogenous) (from UniProt Q12690)”, the binding result in test [10] and in [11] was “binds” each time. For “Rpl23 (endogenous) (from UniProt P0CX42 1-137)”, the binding result in test [1] was “binds”.

(Values after article PMC13034042.)
